2 substances from PMC9691931 can be followed below.

Amino acid sequences for entries named in this document (tags omitted). A change or cut given only in a name is not applied to a line headed by its entry. Chains listed by the source or under a name are the forms on record and can include a tag or linker.
CaVα2δ1 auxiliary subunit (P54289, form named): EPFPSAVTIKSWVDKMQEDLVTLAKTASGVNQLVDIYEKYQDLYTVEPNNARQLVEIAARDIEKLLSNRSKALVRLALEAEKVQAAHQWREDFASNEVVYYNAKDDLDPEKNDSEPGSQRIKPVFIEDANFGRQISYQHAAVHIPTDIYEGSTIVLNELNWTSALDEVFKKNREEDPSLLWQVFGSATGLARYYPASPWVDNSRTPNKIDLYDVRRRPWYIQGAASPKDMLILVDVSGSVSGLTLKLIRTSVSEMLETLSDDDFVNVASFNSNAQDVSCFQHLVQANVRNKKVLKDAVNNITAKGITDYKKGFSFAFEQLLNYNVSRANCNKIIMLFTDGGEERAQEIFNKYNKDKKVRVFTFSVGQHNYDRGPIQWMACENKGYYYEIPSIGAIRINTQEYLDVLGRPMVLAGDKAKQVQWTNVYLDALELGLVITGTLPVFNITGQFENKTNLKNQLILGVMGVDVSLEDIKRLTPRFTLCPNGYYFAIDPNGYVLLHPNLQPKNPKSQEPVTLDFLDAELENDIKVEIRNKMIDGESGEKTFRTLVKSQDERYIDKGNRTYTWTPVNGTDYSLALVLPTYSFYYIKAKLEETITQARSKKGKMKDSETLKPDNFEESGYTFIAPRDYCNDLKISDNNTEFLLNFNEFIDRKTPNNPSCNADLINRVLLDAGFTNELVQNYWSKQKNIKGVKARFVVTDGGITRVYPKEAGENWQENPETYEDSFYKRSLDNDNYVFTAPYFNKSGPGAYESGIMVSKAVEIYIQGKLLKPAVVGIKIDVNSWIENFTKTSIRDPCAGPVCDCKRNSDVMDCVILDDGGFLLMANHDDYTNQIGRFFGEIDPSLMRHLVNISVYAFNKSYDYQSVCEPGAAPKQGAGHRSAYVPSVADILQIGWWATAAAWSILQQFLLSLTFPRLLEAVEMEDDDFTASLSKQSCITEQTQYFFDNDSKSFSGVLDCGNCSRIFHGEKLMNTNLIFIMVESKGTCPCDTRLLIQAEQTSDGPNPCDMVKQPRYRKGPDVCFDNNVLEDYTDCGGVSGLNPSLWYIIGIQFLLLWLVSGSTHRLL
UniProt P15381: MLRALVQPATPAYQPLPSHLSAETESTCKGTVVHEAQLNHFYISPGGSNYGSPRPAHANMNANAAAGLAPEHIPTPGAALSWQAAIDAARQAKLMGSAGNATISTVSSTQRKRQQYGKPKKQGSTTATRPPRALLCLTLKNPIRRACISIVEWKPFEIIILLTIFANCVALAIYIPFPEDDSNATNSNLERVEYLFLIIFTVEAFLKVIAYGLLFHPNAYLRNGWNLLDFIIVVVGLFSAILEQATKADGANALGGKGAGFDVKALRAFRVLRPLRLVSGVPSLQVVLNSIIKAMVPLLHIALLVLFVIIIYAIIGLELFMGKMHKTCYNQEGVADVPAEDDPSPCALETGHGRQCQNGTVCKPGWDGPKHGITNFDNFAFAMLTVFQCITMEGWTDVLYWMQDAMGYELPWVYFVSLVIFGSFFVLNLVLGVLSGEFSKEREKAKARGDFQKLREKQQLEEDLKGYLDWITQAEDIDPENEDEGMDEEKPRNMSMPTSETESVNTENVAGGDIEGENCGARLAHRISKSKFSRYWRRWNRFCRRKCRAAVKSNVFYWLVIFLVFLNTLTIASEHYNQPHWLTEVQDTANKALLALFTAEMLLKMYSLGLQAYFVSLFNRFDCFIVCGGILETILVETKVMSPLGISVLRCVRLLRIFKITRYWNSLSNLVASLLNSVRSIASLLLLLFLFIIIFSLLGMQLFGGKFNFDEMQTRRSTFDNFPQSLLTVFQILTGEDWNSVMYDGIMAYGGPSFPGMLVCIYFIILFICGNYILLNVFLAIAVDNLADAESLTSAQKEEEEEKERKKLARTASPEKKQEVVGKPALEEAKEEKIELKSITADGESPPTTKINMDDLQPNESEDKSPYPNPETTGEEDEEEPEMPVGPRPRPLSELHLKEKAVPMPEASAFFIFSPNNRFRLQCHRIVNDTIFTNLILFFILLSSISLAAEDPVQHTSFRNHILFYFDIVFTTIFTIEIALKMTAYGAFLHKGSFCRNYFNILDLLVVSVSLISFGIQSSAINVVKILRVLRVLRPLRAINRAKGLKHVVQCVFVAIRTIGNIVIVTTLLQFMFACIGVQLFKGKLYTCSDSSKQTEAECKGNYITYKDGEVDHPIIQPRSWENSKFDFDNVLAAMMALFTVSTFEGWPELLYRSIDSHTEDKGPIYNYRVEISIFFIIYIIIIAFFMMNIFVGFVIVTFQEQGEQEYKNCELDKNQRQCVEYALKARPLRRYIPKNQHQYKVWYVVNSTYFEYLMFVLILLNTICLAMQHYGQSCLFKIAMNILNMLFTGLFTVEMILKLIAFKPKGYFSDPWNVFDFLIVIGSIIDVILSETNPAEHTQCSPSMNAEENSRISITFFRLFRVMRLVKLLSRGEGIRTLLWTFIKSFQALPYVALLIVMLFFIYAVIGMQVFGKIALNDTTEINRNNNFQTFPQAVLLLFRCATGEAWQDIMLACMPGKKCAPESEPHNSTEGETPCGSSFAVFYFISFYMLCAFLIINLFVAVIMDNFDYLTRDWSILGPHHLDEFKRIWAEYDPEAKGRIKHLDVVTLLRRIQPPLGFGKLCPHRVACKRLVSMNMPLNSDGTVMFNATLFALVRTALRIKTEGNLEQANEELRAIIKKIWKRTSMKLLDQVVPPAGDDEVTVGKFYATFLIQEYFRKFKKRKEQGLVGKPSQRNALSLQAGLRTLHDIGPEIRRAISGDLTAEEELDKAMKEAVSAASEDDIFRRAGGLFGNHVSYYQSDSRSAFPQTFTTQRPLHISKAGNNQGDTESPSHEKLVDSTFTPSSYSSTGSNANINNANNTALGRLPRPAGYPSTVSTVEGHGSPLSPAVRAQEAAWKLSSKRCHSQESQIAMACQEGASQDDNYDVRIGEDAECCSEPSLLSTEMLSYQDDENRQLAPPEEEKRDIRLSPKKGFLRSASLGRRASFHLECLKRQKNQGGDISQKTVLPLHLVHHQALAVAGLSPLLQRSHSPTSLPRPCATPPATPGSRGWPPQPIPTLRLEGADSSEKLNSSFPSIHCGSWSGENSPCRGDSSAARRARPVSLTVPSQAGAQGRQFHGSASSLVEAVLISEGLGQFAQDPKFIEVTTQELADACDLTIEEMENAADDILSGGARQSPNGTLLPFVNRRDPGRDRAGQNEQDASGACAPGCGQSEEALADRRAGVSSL

These are yes or no findings as the source states them, for the method shown. Binding seen in cells or lysates may run through a third protein. Some entries that bind do so weakly or less than the wild type.

In one test the target is cMyc-tagged CaVβ3 (UniProt P54287). The test can be described thus: co-IP; HEKT cells co-transfected with CaV1.2 WT or G449R, CaVα2δ1 and cMyc-tagged CaVβ3 or CaVβ2a; CaVβ as bait; lysates (20 mM Na-Mops pH 7.4, 300 mM NaCl, 1% digitonin or 0.5% CHAPS) incubated overnight with anti-cMyc magnetic beads; Western blot. On the technique in general: Immunoblotting shows a protein as a band on a membrane.

Test [1] concerns the target CaVα2δ1 auxiliary subunit (UniProt P54289). Described as above.

As to “CaVα1C pore-forming subunit of the L-type CaV1.2 channel, G449R (rabbit clone numbering; human G419R) (from UniProt P15381 1-2171)”, the binding result (in the test with cMyc-tagged CaVβ3; in test [1]) was “binds” in each case.

“CaVα1C pore-forming subunit of the L-type CaV1.2 channel, WT (rabbit clone) (from UniProt P15381 1-2171)”: the binding entry (in the test with cMyc-tagged CaVβ3; in test [1]) was “binds” throughout.
